The source of these data is patent US20130331333A1 (HADASIT MEDICAL RESEARCH SERVICES AND DEVELOPMENT, published 2013).

These are yes or no findings as the source states them, for the method shown. For some assays here: Sequences can lack the tags named with a protein.

The target of assay [1] is hPar2 mutant K352A (human). As to the kind of experiment: HEK-293T lysates on PH-Etk/Bmx.
Assay [2] addresses truncated form of hPar2 (human). Briefly: Etk/Bmx expressing cell lysates and GST-PAR2 C-tails.

B1: GST-PH-Etk/Bmx (other, UniProt P51813 1-111, looked up)
chain: MDTKSILEELLLKRSQQKKKMSPNNYKERLFVLTKTNLSYYEYDKMKRGSRKGSIEIKKIRCVEKVNLEEQTPVERQYPFQIVYKDGLLYVYASNEESRSQWLKALQKEIR
notes: domain: PH domain; Made as in Chen et al. 2001; also called GST-Etk-PH; GST-Etk/Bmx; not shown: GST tag
Consider B1, for which the binding result in assay [1] was “no binding”.

B2: Etk/Bmx (epithelial tyrosine kinase), wild type (enzyme, UniProt P51813 1-675, looked up)
chain: MDTKSILEELLLKRSQQKKKMSPNNYKERLFVLTKTNLSYYEYDKMKRGSRKGSIEIKKIRCVEKVNLEEQTPVERQYPFQIVYKDGLLYVYASNEESRSQWLKALQKEIRGNPHLLVKYHSGFFVDGKFLCCQQSCKAAPGCTLWEAYANLHTAVNEEKHRVPTFPDRVLKIPRAVPVLKMDAPSSSTTLAQYDNESKKNYGSQPPSSSTSLAQYDSNSKKIYGSQPNFNMQYIPREDFPDWWQVRKLKSSSSSEDVASSNQKERNVNHTTSKISWEFPESSSSEEEENLDDYDWFAGNISRSQSEQLLRQKGKEGAFMVRNSSQVGMYTVSLFSKAVNDKKGTVKHYHVHTNAENKLYLAENYCFDSIPKLIHYHQHNSAGMITRLRHPVSTKANKVPDSVSLGNGIWELKREEITLLKELGSGQFGVVQLGKWKGQYDVAVKMIKEGSMSEDEFFQEAQTMMKLSHPKLVKFYGVCSKEYPIYIVTEYISNGCLLNYLRSHGKGLEPSQLLEMCYDVCEGMAFLESHQFIHRDLAARNCLVDRDLCVKVSDFGMTRYVLDDQYVSSVGTKFPVKWSAPEVFHYFKYSSKSDVWAFGILMWEVFSLGKQPYDLYDNSQVVLKVSQGHRLYRPHLASDTIYQIMYSCWHELPEKRPTFQQLLSSIEPLREKDKH
As for B2, in assay [2], the binding result is recorded as “no binding”.
